Some of these results come from one statement about several compounds together.
Assay: Solubility test in organic solvents
Assay type: physicochemical
Conditions: versus Compounds (30) and (40); methylene chloride, tetrahydrofuran
Procedure: 1 g of a compound to be tested was poured into a test tube with stirring at room temperature and solvents listed in Table 1 were slowly added drop by drop. The amounts of the solvents required to completely dissolve 1 g of the tested compound were measured.

Structure (SMILES)	times better solubility in the organic solvents than symmetric Compounds (30) and (40) [times]
CCCCN1C(=O)c2ccc3c4c(ccc(c24)C1=O)C(=O)N(C(C)c1ccccc1)C3=O (centres unmarked) [Compound (4)]	3 to 12
CCCCN1C(=O)c2ccc3c4c(ccc(c24)C1=O)C(=O)N(C(CC)c1ccccc1)C3=O (centres unmarked) [Compound (12)]	3 to 12

Source: patent US7494754B2, “Electrophotographic photoreceptor containing asymmetric naphthalenetetracarboxylic acid diimide derivatives and electrophotographic imaging apparatus employing the same” (Samsung Electronics Co., Ltd., priority 2005, dated 2009)
